Measured values published in patent publication US20050118615A1 (COMPUGEN, published 2005).
No constants are given. Whether binding was seen depends on the method and setting. Some results given as binding are weak or reduced against the parent protein; the word gives no strength. Sequences can lack the tags named with a protein.

Sequences of proteins named here, by UniProt entry; tags and fusion partners are left off. Residues count along the entry.
UniProt P08476, residues 311-426: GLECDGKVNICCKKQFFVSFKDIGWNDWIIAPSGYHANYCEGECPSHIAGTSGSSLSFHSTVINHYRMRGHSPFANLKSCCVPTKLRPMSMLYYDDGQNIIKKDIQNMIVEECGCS

Legend:
[1] = biological target: recombinant human Activin A (R&D Systems) (human) (UniProt P08476); experiment: pull-down on Talon metal affinity resin with immobilised His-hCHL2, immunoblot with anti-Activin goat polyclonal antibody
[2] = biological target: recombinant human Activin A (R&D Systems) (human) (UniProt P08476); experiment: pull-down on Talon metal affinity resin with immobilised His-hCHL2, immunoblot with anti-Activin A antibody
[3] = biological target: recombinant human Activin A (R&D Systems) (human) (UniProt P08476); experiment: in vitro binding assay with His-tagged hCHL2

Measured: binding

B1: His-tagged hCHL2 (variant II), secreted from COS-7 cells transfected with pcDNA4/myc-His-hCHL2 (other, not shown: small tags and cut ends)
chain: RARPDMFCLFHGKRYSPGESWHPYLEPQGLMYCLRCTCSEGAHVSCYRLHCPPVHCPQPVTEPQQCCPKCVEPHTPSGLRAPPKSCQHNGTMYQHGEIFSAHELFPSRLPNQCVLCSCTEGQIYCGLTTCPEPGCPAPLPLPDSCCQACKDEASEQSDEEDRVQSLHGVRHPQDPCSSDAGRKRGPGTPAPTGLSAPLSFIPRHFIPKGAGSTTVKIVLKEKHKKACVHGGKTYSHGEVWHPAFRAFGPLPCILCTCEDGRQDCQRVTCPTEYPCRHPEKVAGKCCKICPEDKADPGHSEISSTRCPKAPGRVLVHTSVSPSPDNLRRFALEHEASDLVEIYLWKLVKDEETEAQRGEVPGPRPHSQNLPLDSDQESQEARLPERGTALPTARWPPRRSLERLPSPDPGAEGHGQSRQSDQDITKT
notes: also called His-tagged hCHL2 protein
binds: all assays above
